PubChem BioAssay AID1224830 | NIAID | 2016
Here is one part, drawn at random, of about 18,000 reagents tested. Over the whole deposit, about 2,900 (16%) were called active. 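Calls are made per well; low scores hint the gene aids the LPS response, high scores that it dampens it.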 Entries without a mark were called inactive. Repeated entries: four replicate wells of each siRNA pool.

- Test: 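Host factors that control LPS-induced TNF expression in human macrophages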 (primary screen)
- Cell system: human THP-1 monocytic leukaemia cells, TNF dual-luciferase reporter clone, PMA-differentiated to macrophage-like cells
- Reagents: siRNA pool against human genes, 50 nM
- Timing: LPS for 4 h, given about 3 days after siRNA transfection
- Treatment: bacterial LPS (TLR4 ligand), 10 ng/ml
- Detection: 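TNF firefly reporter luminescence divided by renilla, normalised to the plate median, then turned into a robust z-score for each replicate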
- Direction: TNF reporter robust z-score: higher = stronger TNF reporter response to LPS
- Active means: 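Each well counts as active if its z-score is over 2.8 or under -1.5; controls are left without a call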

For EIF4EBP3, how do the results read?
TNF reporter robust z-score: -0.35

How did the screen score EIF4EBP3?
TNF reporter robust z-score: -0.3

For EIF4EBP3, what does the deposit list?
TNF reporter robust z-score: -0.27

With EIF4EBP3, what does the deposit list?
TNF reporter robust z-score: -0.12

For CIDEA (cell death inducing DFFA like effector a), how do the results read?
TNF reporter robust z-score: -0.96

What is on record for CIDEA (cell death inducing DFFA like effector a)?
TNF reporter robust z-score: -0.01

What did the screen give for CIDEA (cell death inducing DFFA like effector a)?
TNF reporter robust z-score: -0.56

For CIDEA (cell death inducing DFFA like effector a), what does the deposit list?
TNF reporter robust z-score: -0.63

For PAIP2 (poly(A) binding protein interacting protein 2), what was measured?
TNF reporter robust z-score: -0.28

For PAIP2 (poly(A) binding protein interacting protein 2), what does the deposit list?
TNF reporter robust z-score: -1.14

Which result is listed for PAIP2 (poly(A) binding protein interacting protein 2)?
TNF reporter robust z-score: 0.31

For PAIP2 (poly(A) binding protein interacting protein 2), what does the deposit list?
TNF reporter robust z-score: 0.62

With RAET1G (retinoic acid early transcript 1G), what was measured?
TNF reporter robust z-score: -0.63

For RAET1G (retinoic acid early transcript 1G), how do the results read?
TNF reporter robust z-score: -0.69

What did the screen give for RAET1G (retinoic acid early transcript 1G)?
TNF reporter robust z-score: -1.9 (active)

For RAET1G (retinoic acid early transcript 1G), what was measured?
TNF reporter robust z-score: -1.21

With MAD2L1 (mitotic arrest deficient 2 like 1), what was measured?
TNF reporter robust z-score: 0.59

With MAD2L1 (mitotic arrest deficient 2 like 1), what was measured?
TNF reporter robust z-score: 0.31

With MAD2L1 (mitotic arrest deficient 2 like 1), how do the results read?
TNF reporter robust z-score: 0.13

How did the screen score MAD2L1 (mitotic arrest deficient 2 like 1)?
TNF reporter robust z-score: 1.21

For ZNF562 (zinc finger protein 562), what was measured?
TNF reporter robust z-score: -0.33

With ZNF562 (zinc finger protein 562), what does the deposit list?
TNF reporter robust z-score: 1.35

What did the screen give for ZNF562 (zinc finger protein 562)?
TNF reporter robust z-score: 1.32

What did the screen give for ZNF562 (zinc finger protein 562)?
TNF reporter robust z-score: 0.39

For ERCC1 (ERCC excision repair 1, endonuclease non-catalytic subunit), what was measured?
TNF reporter robust z-score: -0.63

What is on record for ERCC1 (ERCC excision repair 1, endonuclease non-catalytic subunit)?
TNF reporter robust z-score: 0.06

What is on record for ERCC1 (ERCC excision repair 1, endonuclease non-catalytic subunit)?
TNF reporter robust z-score: -0.24

How did the screen score ERCC1 (ERCC excision repair 1, endonuclease non-catalytic subunit)?
TNF reporter robust z-score: 0.04

For WDR5 (WD repeat domain 5), what was measured?
TNF reporter robust z-score: -1.55 (active)

For WDR5 (WD repeat domain 5), how do the results read?
TNF reporter robust z-score: -1.26

What did the screen give for WDR5 (WD repeat domain 5)?
TNF reporter robust z-score: -1.41

For WDR5 (WD repeat domain 5), how do the results read?
TNF reporter robust z-score: -1.32

What did the screen give for OR8B3 (olfactory receptor family 8 subfamily B member 3)?
TNF reporter robust z-score: -0.03

What is on record for OR8B3 (olfactory receptor family 8 subfamily B member 3)?
TNF reporter robust z-score: 0.56

For OR8B3 (olfactory receptor family 8 subfamily B member 3), how do the results read?
TNF reporter robust z-score: -0.73

For OR8B3 (olfactory receptor family 8 subfamily B member 3), what does the deposit list?
TNF reporter robust z-score: 0.47

What did the screen give for PRPF18 (pre-mRNA processing factor 18)?
TNF reporter robust z-score: 0

What is on record for PRPF18 (pre-mRNA processing factor 18)?
TNF reporter robust z-score: 1.59

With PRPF18 (pre-mRNA processing factor 18), what was measured?
TNF reporter robust z-score: 2.14

Which result is listed for PRPF18 (pre-mRNA processing factor 18)?
TNF reporter robust z-score: 2.16

Which result is listed for EPB41L5 (erythrocyte membrane protein band 4.1 like 5)?
TNF reporter robust z-score: 0.75

For EPB41L5 (erythrocyte membrane protein band 4.1 like 5), what was measured?
TNF reporter robust z-score: 1.84

What is on record for EPB41L5 (erythrocyte membrane protein band 4.1 like 5)?
TNF reporter robust z-score: 0.45

How did the screen score EPB41L5 (erythrocyte membrane protein band 4.1 like 5)?
TNF reporter robust z-score: 2.04

Which result is listed for ARHGAP35 (Rho GTPase activating protein 35)?
TNF reporter robust z-score: -0.92

With ARHGAP35 (Rho GTPase activating protein 35), how do the results read?
TNF reporter robust z-score: -0.73

With ARHGAP35 (Rho GTPase activating protein 35), what was measured?
TNF reporter robust z-score: -0.77

What did the screen give for ARHGAP35 (Rho GTPase activating protein 35)?
TNF reporter robust z-score: -1.33

What did the screen give for SEZ6L (seizure related 6 homolog like)?
TNF reporter robust z-score: 2.55

Which result is listed for SEZ6L (seizure related 6 homolog like)?
TNF reporter robust z-score: 1.79

What did the screen give for SEZ6L (seizure related 6 homolog like)?
TNF reporter robust z-score: 1.6

With SEZ6L (seizure related 6 homolog like), what does the deposit list?
TNF reporter robust z-score: 2.6

For CYP7B1 (cytochrome P450 family 7 subfamily B member 1), what does the deposit list?
TNF reporter robust z-score: 0.22

With CYP7B1 (cytochrome P450 family 7 subfamily B member 1), how do the results read?
TNF reporter robust z-score: 0.34

What is on record for CYP7B1 (cytochrome P450 family 7 subfamily B member 1)?
TNF reporter robust z-score: -0.3

With CYP7B1 (cytochrome P450 family 7 subfamily B member 1), how do the results read?
TNF reporter robust z-score: 0.88

How did the screen score SIPA1 (signal-induced proliferation-associated 1)?
TNF reporter robust z-score: 0.09

Which result is listed for SIPA1 (signal-induced proliferation-associated 1)?
TNF reporter robust z-score: 0.78

What is on record for SIPA1 (signal-induced proliferation-associated 1)?
TNF reporter robust z-score: -0.28

Which result is listed for SIPA1 (signal-induced proliferation-associated 1)?
TNF reporter robust z-score: -0.63

No new results follow: an excerpt of the list.
OR8B3 (olfactory receptor family 8 subfamily B member 3) — TNF reporter robust z-score = -0.73
OR8B3 (olfactory receptor family 8 subfamily B member 3) — TNF reporter robust z-score = 0.47
PRPF18 (pre-mRNA processing factor 18) — TNF reporter robust z-score = 0
PRPF18 (pre-mRNA processing factor 18) — TNF reporter robust z-score = 1.59
PRPF18 (pre-mRNA processing factor 18) — TNF reporter robust z-score = 2.14
PRPF18 (pre-mRNA processing factor 18) — TNF reporter robust z-score = 2.16
